In PMC4811503, “A method for quantification of exportin-1 (XPO1) occupancy by Selective Inhibitor of Nuclear Export (SINE) compounds” (Oncotarget, 2015):

Test system: nuclear export of the XPO1 cargo protein Rev-GFP in stably transfected U2OS cells
Experiment: Rev-GFP assay (nuclear retention of Rev-GFP)
Format: cell-based
Settings: ratio of Rev-GFP IC50 values
Text: For this assay we utilized biotinylated LMB (b-LMB) as a tool compound to quantify the amount of XPO1 bound by SINE compounds (Figure 1). b-LMB was synthesized by coupling a biotin tag to LMB. We compared the inhibition of nuclear export and the cytotoxicity of b-LMB to that of the unmodified LMB. […] We then quantified the effects of these compounds on cell death in several cancer cell lines using an MTT cytotoxicity assay (Table 2).
For the typical Rev-GFP assay, U2OS cells stably expressing Rev-GFP [42] were cultured in 96 well plates at 7,500 - 15,000 cells/well. […] After fixation cells were stained with DAPI (Invitrogen) for 10 minutes at room temperature. Cells were imaged with a Nikon fluorescent microscope at 10X magnification and intensity of the GFP and nuclear area were measured and recorded. Cells were scored as either GFP nuclear positive or negative. Number of positive cells were divided by total number of cells in order to calculate percentage of cells with nuclear GFP per well.

SMILES	fold less potent in Rev-GFP compared to unmodified counterpart [fold]
NC(=O)/C(=C/n1cnc(-c2cc(OC(=O)CCCC[C@@H]3SC[C@@H]4NC(=O)N[C@@H]43)cc(C(F)(F)F)c2)n1)c1cncnc1 [KPT-9511]	~5
O=C1N[C@H]2[C@H](CS[C@H]2CCCCC(=O)Oc2cc(-c3ncn(/C=C\C(=O)N4CC(F)(F)C4)n3)cc(C(F)(F)F)c2)N1 [KPT-9058]	~18
